Data as given in PubChem BioAssay AID1259308 (NCATS, 2017).

- Screen: 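Candidate targets for better recombinant protein yield in mammalian cells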 (primary screen)
- Cell system: human HEK293 embryonic kidney cells stably expressing firefly luciferase (HEK-CMV-Luc2-Hygro)
- Knock-down reagent: single siRNA against human genes, 0.8 pmol siRNA per well
- Duration: 72 h
- Measurement: 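Reporter luminescence and viable-cell signal on separate replicate plates, given as percent of non-targeting control and median/MAD z-scores, plus per-cell luciferase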
- Reading the numbers: total luciferase, z-score: higher = more reporter protein produced
- Rule for the call: 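An siRNA counts as active if its total luciferase robust z-score exceeds 3; genes with two or more such siRNAs out of three were retested with fresh siRNAs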
- Meaning of the calls: active = raised luciferase; inactive = no rise
The deposit covers about 59,000 reagents; this is a random part of them. About 1,510 of them (2.6%) count as active. 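Calls use total luciferase alone and ignore viability, so some active siRNAs may act by altering cell number.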 Further read-outs or replicates are left out here.

What did the screen give for SKA1 (spindle and kinetochore associated complex subunit 1) [SID160732696]?
total luciferase, z-score: 1.17; Call: inactive

With SKA1 (spindle and kinetochore associated complex subunit 1) [SID160761500], how do the results read?
total luciferase, z-score: -1.79; Call: inactive

Which result is listed for SKA1 (spindle and kinetochore associated complex subunit 1) [SID160761501]?
total luciferase, z-score: -0.316; Call: inactive

With KRT13 (keratin 13) [SID160776409], how do the results read?
total luciferase, z-score: -1.09; Call: inactive

For KRT13 (keratin 13) [SID160776410], how do the results read?
total luciferase, z-score: -2.91; Call: inactive

With KRT13 (keratin 13) [SID160776411], what does the deposit list?
total luciferase, z-score: 1.12; Call: inactive

For GZMK (granzyme K) [SID160774783], what was measured?
total luciferase, z-score: 0.478; Call: inactive

What did the screen give for GZMK (granzyme K) [SID160774784]?
total luciferase, z-score: 4.3; Call: active

With GZMK (granzyme K) [SID160774785], how do the results read?
total luciferase, z-score: 1.85; Call: inactive

For TULP2 (TUB like protein 2) [SID160718463], how do the results read?
total luciferase, z-score: 1.81; Call: inactive

How did the screen score TULP2 (TUB like protein 2) [SID160718464]?
total luciferase, z-score: 2.44; Call: inactive

With TULP2 (TUB like protein 2) [SID160734432], what was measured?
total luciferase, z-score: -0.575; Call: inactive

For NCOR1P1 (NCOR1 pseudogene 1) [SID160732565], what does the deposit list?
total luciferase, z-score: 0.481; Call: inactive

What is on record for NCOR1P1 (NCOR1 pseudogene 1) [SID160758882]?
total luciferase, z-score: 0.902; Call: inactive

How did the screen score NCOR1P1 (NCOR1 pseudogene 1) [SID160758883]?
total luciferase, z-score: -0.809; Call: inactive

For SLC7A4 [SID160716899], what was measured?
total luciferase, z-score: -0.0456; Call: inactive

For SLC7A4 [SID160716900], how do the results read?
total luciferase, z-score: 0.752; Call: inactive

With SLC7A4 [SID160716901], what does the deposit list?
total luciferase, z-score: -0.0896; Call: inactive

How did the screen score PDK2 (pyruvate dehydrogenase kinase 2) [SID160714057]?
total luciferase, z-score: -0.506; Call: inactive

Which result is listed for PDK2 (pyruvate dehydrogenase kinase 2) [SID160714058]?
total luciferase, z-score: -1.34; Call: inactive

With PDK2 (pyruvate dehydrogenase kinase 2) [SID160714059], what was measured?
total luciferase, z-score: -1.23; Call: inactive

Laid out differently: results already given.
| Gene | PubChem SID | total luciferase, z-score | Call |
| --- | --- | --- | --- |
| SKA1 (spindle and kinetochore associated complex subunit 1) | SID160732696 | 1.17 | inactive |
| SKA1 (spindle and kinetochore associated complex subunit 1) | SID160761500 | -1.79 | inactive |
| SKA1 (spindle and kinetochore associated complex subunit 1) | SID160761501 | -0.316 | inactive |
| KRT13 (keratin 13) | SID160776409 | -1.09 | inactive |
